In paper PMC10447538:
Results are given in words; binding and its absence hold for the method and conditions named. In cells and extracts the contact can be indirect. Some results given as binding are weak or reduced against the parent protein; the word gives no strength. For some assays here: Where a sequence is shown, tags or fusion partners need not be part of it.

The chains behind the UniProt entries cited, without tags or fusion partners.
UniProt P08670: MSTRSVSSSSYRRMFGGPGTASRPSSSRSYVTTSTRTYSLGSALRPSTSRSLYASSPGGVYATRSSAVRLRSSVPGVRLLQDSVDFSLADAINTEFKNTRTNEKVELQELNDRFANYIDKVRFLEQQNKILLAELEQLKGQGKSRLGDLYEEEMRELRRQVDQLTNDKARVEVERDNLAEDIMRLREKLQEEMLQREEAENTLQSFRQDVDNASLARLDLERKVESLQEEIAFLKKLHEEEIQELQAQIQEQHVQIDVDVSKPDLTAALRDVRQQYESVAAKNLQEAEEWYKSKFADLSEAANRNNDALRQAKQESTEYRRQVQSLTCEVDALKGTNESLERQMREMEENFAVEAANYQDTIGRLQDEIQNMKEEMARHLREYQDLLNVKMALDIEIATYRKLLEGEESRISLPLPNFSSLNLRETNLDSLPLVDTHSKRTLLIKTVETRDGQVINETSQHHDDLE

Legend:
[1] = target: T1, Flag-tagged LGSN (lengsin, lens protein with glutamine synthetase domain) (human) (UniProt Q5TDP6); experiment: co-IP; Flag pull-down of Flag-tagged LGSN from cell lysate, western blot for vimentin
T1 sequence: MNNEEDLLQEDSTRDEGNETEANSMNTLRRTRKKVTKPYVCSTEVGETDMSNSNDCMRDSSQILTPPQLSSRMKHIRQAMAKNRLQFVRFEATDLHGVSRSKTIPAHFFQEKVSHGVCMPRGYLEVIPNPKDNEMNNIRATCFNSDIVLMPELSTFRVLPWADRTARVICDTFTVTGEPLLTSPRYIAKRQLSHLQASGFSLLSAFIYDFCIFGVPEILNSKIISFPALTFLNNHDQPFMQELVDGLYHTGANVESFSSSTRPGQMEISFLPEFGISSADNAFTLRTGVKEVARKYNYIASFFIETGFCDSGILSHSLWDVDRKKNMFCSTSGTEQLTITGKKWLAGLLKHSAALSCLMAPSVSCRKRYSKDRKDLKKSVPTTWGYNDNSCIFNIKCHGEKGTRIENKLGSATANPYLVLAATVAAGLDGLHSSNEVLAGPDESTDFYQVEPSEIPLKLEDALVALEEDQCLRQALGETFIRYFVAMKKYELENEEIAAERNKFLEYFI

[2] = target: T2, endogenous LGSN (lengsin, lens protein with glutamine synthetase domain) (human (endogenous in GCSC1)) (UniProt Q5TDP6); experiment: co-IP; co-immunoprecipitation of endogenous LGSN and vimentin from GCSC1 cells, western blot
T2 sequence: T1 sequence

binding [1]: binds
binding [2]: binds
Substance: vimentin (from UniProt P08670 1-466)
